PubChem BioAssay AID504774 | Drosophila RNAi Screening Center | 2011
In all, the deposit lists about 23,000 reagents; below is a random part of those that have a named target and a result. 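Values are quantile-normalised luminescence on an arbitrary scale; higher means more cells surviving MMS.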 Names joined by + are all predicted targets of the reagent. Not all columns of the deposit are shown.

Assay: 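Genes required for cells to withstand methyl methanesulphonate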 (primary screen)
Cells: Drosophila Kc167 cells
Knock-down reagent: long dsRNA against Drosophila genes, about 0.25 µg dsRNA per well
Timing: about 6 days: 3 days knock-down, then 3 days with or without MMS
Challenge: methyl methanesulphonate 0.004% (w/v) for 3 days after knock-down
Measurement: 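ATP-dependent luminescence as a measure of live cells in MMS-exposed wells, quantile normalised within each plate, with replicate values also given as a mean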
Direction: mean viability with MMS: higher = more surviving cells after MMS

gene | DRSC id | mean viability with MMS
CG4161 | DRSC01930 | 3.56e6
CG3760 | DRSC04415 | 1.82e6
nAChRalpha7 (nicotinic Acetylcholine Receptor alpha7) | DRSC20078 | 3.62e6
nAChRalpha7 (nicotinic Acetylcholine Receptor alpha7) | DRSC20081 | 3.56e6
Trf (TBP-related factor) | DRSC03462 | 3.76e6
crok (crooked) | DRSC02593 | 3.67e6
crok (crooked) | DRSC21349 | 3.81e6
Fkbp59 (FK506-binding protein 59kD) | DRSC03323 | 3.56e6
CG13003 | DRSC19522 | 3.60e6
CG7208 | DRSC16212 | 3.63e6
CG9992 | DRSC20226 | 3.43e6
CG9992 | DRSC21643 | 3.55e6
Osi19 (Osiris 19) | DRSC12569 | 3.60e6
Ak1 (Adenylate kinase 1) | DRSC10248 | 3.43e6
CG3565 | DRSC04389 | 3.57e6
Acn (Acinus) | DRSC02062 | 3.38e6
CecB (Cecropin B) | DRSC16605 | 3.45e6
alpha-Man-IIb (alpha-Mannosidase class II b) | DRSC16898 | 3.67e6
Fdx1 (Ferredoxin 1) | DRSC11167 | 3.67e6
CG7781 | DRSC03068 | 3.66e6
glob1 (globin 1) | DRSC16959 | 3.47e6
Rsph9 (Radial spoke head protein 9) | DRSC01594 | 3.59e6
Smyd4-2 (SET and MYND domain containing, class 4, member 2) | DRSC10126 | 3.30e6
Sec23 (Secretory 23) | DRSC12387 | 3.68e6
dany (distal antenna-young) | DRSC04141 | 3.58e6
CG14817 | DRSC18547 | 3.55e6
CG1273 | DRSC08291 | 3.45e6
Cht4 (Chitinase 4) | DRSC04603 | 3.38e6
CG33689 | DRSC09424 | 3.67e6
l(2)37Bb (lethal (2) 37Bb) | DRSC02088 | 3.77e6
CG31140 | DRSC13649 | 3.63e6
CG31140 | DRSC14603 | 3.61e6
CG31140 | DRSC15904 | 3.62e6

5 of these entries, set out differently:
{"gene":"CG3565","DRSC id":"DRSC04389","mean viability with MMS":3.57e6}
{"gene":"Acn (Acinus)","DRSC id":"DRSC02062","mean viability with MMS":3.38e6}
{"gene":"CecB (Cecropin B)","DRSC id":"DRSC16605","mean viability with MMS":3.45e6}
{"gene":"alpha-Man-IIb (alpha-Mannosidase class II b)","DRSC id":"DRSC16898","mean viability with MMS":3.67e6}
{"gene":"Fdx1 (Ferredoxin 1)","DRSC id":"DRSC11167","mean viability with MMS":3.67e6}

More results follow.
gene | DRSC id | mean viability with MMS
CG11267 | DRSC09833 | 3.64e6
CG1571 | DRSC18068 | 3.74e6
AOX4 (Aldehyde oxidase 4) | DRSC15337 | 3.70e6
CG11842 | DRSC14400 | 3.48e6
CG17325 + CG42305 | DRSC02602 | 3.65e6
Graf (GTPase regulator associated with FAK) | DRSC20131 | 3.55e6
CG7058 | DRSC20021 | 3.62e6
CG34316 | DRSC13080 | 3.62e6
Pfrx (6-phosphofructo-2-kinase) | DRSC18856 | 3.57e6
Pfrx (6-phosphofructo-2-kinase) | DRSC19315 | 3.59e6
CG44153 | DRSC02228 | 3.71e6
CG44153 | DRSC02229 | 3.37e6
CG44153 | DRSC02902 | 3.42e6
CG44153 | DRSC02903 | 3.35e6
CG12268 | DRSC14491 | 3.57e6
CG8173 | DRSC20088 | 3.55e6
uncNacbeta | DRSC00326 | 3.64e6
CG9570 | DRSC20687 | 3.64e6
SCAP (SREBP cleavage activating protein) | DRSC04869 | 3.57e6
SCAP (SREBP cleavage activating protein) | DRSC04907 | 3.46e6
Chchd2 (Coiled-coil-helix-coiled-coil-helix domain containing 2) | DRSC19931 | 3.54e6
CG44098 | DRSC12214 | 3.59e6
CG44098 | DRSC12327 | 3.58e6
CG13065 | DRSC09948 | 3.54e6
GILT2 (Gamma-interferon-inducible lysosomal thiol reductase 2) | DRSC14196 | 3.76e6
Rpe (Ribulose-5-phosphate-3-epimerase) | DRSC06407 | 3.48e6
CG5033 | DRSC07410 | 3.50e6
CG13231 | DRSC06351 | 3.50e6
Arp3 (Actin-related protein 3) | DRSC09669 | 3.50e6
RpL31 (Ribosomal protein L31) | DRSC06716 | 2.93e6
Rab1 | DRSC16808 | 3.53e6
CG4839 | DRSC02783 | 3.64e6
CG4839 | DRSC02784 | 3.62e6
CG3713 | DRSC18648 | 3.66e6
blot (bloated tubules) | DRSC09485 | 3.73e6
blot (bloated tubules) | DRSC11328 | 3.68e6
